Test results reported in the supplement of paper PMC3334620.
In all, about 33,000 sequences were measured (“E-score (-0.5 to 0.5)”: median about -0.0014, highest 2% from about 0.25 on). Some of the results follow.

Target: T1, Cad1 (UniProt P24813)
T1 sequence: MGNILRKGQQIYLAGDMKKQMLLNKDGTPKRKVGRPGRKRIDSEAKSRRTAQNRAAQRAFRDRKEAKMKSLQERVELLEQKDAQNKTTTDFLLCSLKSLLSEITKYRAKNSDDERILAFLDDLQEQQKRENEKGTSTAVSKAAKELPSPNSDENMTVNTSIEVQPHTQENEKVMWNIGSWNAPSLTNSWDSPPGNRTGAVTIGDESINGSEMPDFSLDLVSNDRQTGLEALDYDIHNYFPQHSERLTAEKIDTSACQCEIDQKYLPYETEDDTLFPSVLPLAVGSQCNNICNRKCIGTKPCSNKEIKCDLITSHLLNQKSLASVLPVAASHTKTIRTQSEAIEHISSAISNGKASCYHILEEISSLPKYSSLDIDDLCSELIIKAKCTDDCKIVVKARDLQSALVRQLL
Assay: PBM E-score (8-mer binding enrichment) (E-score (-0.5 to 0.5)); higher = stronger / more preferred TF binding
Conditions: protein concentration: 100 nM; construct: GST-full length
How it was run: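 Using PURExpress in vitro transcription/translation, GST-tagged yeast transcription factors were made in full-length or DNA-binding-domain form. These were applied at about 100-200 nM to double-stranded universal all-10-mer Agilent arrays, and bound protein was detected with fluorescent anti-GST. Scans were normalised with masliner before the Universal PBM Analysis Suite assigned E-scores to ungapped eight-base words pooled with their reverse complements.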

Row | Sequence | PBM E-score
1 | CTAGATGA | -0.147
2 | CAGGCACA | -0.228
3 | AGAGGTGC | -0.0451
4 | GTAATAAC | 0.106
5 | GAGGTTTA | 0.00031
6 | CCTGTGGA | -0.3
7 | GCAAGATA | 0.129
8 | AAGGAAGC | -0.0888
9 | TAGAACCA | -0.0883
10 | CCCCCAAC | -0.268
11 | GTAGCAGA | 0.149
12 | ACCCCGCG | -0.166
13 | ATCGGACC | -0.0367
14 | GACGCCAC | -0.103
15 | CTGATAAG | 0.166
16 | CCGTCATA | -0.0187
17 | CAATTAGC | 0.00571
18 | ACACTTTA | 0.0868
19 | ACCAATCA | 0.032
20 | GTCTTTCA | -0.203
21 | ACGTTTGC | 0.0814
22 | ACAGACAT | 0.0522
23 | TACCATGA | -0.103
24 | AGGGCCCG | -0.21
25 | ACTTGTCT | 0.172

Row | Sequence | PBM E-score
26 | AGACGGGA | -0.0621
27 | ATTCTCCA | 0.0671
28 | CCCCCACA | -0.453
29 | CCACGCCC | -0.267
30 | ACGTCGAT | 0.178
31 | ACTAACTC | -0.0331
32 | ACATAAAA | 0.229
33 | AAATCAGA | 0.0843
34 | CCCCGGAA | -0.247
35 | CAACCTGG | -0.0297
36 | CTGCCGAC | -0.0175
37 | GATAGTAC | 0.0176
38 | AACAGTGG | -0.00493
39 | ATCTTTCG | -0.0314
40 | CCTACCCC | -0.248
41 | ATCGACAC | 0.081
42 | ACGGTGAC | -0.102
43 | CTTCACAA | -0.0814
44 | ACAATGAG | -0.146
45 | CCACGCTC | -0.0899
46 | ACCGGGGC | -0.162
47 | CACGGTGG | 0.0104
48 | GCGAAGTA | 0.0916
49 | AACCGCTT | 0.0439
50 | ATTCGCTG | 0.146

Row | Sequence | PBM E-score
51 | ATCGGGAG | 0.0171
52 | GACCGCGC | 0.0162
53 | CGAGAAAC | -0.018
54 | AAGCGGAC | 0.0105
55 | CCCTCATA | -0.0953
56 | ATACTTAG | 0.109
57 | GGCCTGCA | -0.248
58 | AGTTTTCG | 0.112
59 | GGGGCAAC | -0.0927
60 | AAGCCCCC | -0.422
61 | CTAAACGC | 0.11
62 | GCATGGGC | -0.213
63 | TACCACCA | 0.0167
64 | ATTTCTGA | 0.0948
65 | AACCAGAT | 0.122
66 | GGGAGTTA | -0.108
67 | CGGACCAA | 0.175
68 | CGGGTCTC | -0.18
69 | AGACTAAC | -0.122
70 | ACCGTAAC | -0.184
71 | TGCTCGAA | -0.0951
72 | CCCTAAAC | -0.0926
73 | ATAGAATG | 0.112
74 | CGCGAGCA | 0.164
75 | GTTTCTGA | 0.142

Quoted from the listing.
ATACTTAG | PBM E-score: 0.109
CCCTAAAC | PBM E-score: -0.0926
AACCAGAT | PBM E-score: 0.122
GGGAGTTA | PBM E-score: -0.108
GACCGCGC | PBM E-score: 0.0162

Next results:

Row | Sequence | PBM E-score
76 | CGTGCCAA | 0.0666
77 | TCACGCAA | 0.15
78 | CGTCACTC | -0.218
79 | AGGGGCTA | -0.2
80 | CATGTGCG | 0.173
81 | AAATAAAT | 0.314
82 | AGTGGTGG | -0.0881
83 | GAGCTGTA | -0.0985
84 | CCCTGTTA | -0.0423
85 | GGCGGCAC | -0.0382
86 | CTGGGTCA | -0.183
87 | TATAGATA | 0.0297
88 | ATGGACTC | -0.16
89 | ATTCAACG | 0.082
90 | ATTGTAAA | 0.0972
91 | ACCTATAC | -0.126
92 | GGACTCCC | -0.213
93 | AAATACAG | -0.0467
94 | GATATGAC | 0.144
95 | CGGACTCA | -0.02
96 | TAACAAGA | -0.0477
97 | AATAACCC | 0.128
98 | AATGTGGT | 0.0506
99 | AGCGTGAG | -0.0272
100 | ATGCAGTG | 0.143

Row | Sequence | PBM E-score
101 | AATTCGCT | 0.236
102 | ACGACCTA | -0.0934
103 | ACCTTCCA | -0.0872
104 | AGGGCTTA | -0.0793
105 | AGGGGGCG | -0.326
106 | CAACTGTG | -0.031
107 | AGTCTACA | -0.246
108 | CATGCCGA | 0.248
109 | ATACTCAA | -0.0344
110 | CATACGAC | -0.0038
111 | CTCCAACA | -0.0567
112 | CATTAGGC | -0.191
113 | AGTTCAAC | 0.11
114 | AAGTTAAG | -0.152
115 | ATTAGTGG | 0.163
116 | ACCGTTTA | -0.0313
117 | CTCTATAC | 0.0205
118 | AGCGCTAA | 0.212
119 | AGACCTAA | -0.0611
120 | CAATCCCC | -0.19
121 | TCTAGAAA | -0.148
122 | TAATACGA | 0.196
123 | ATGTATAA | 0.137
124 | ATGGAAGA | -0.289
125 | CAGGTGGG | -0.0969

Row | Sequence | PBM E-score
126 | CAAGATAC | -0.0667
127 | ATAAGCAT | 0.0827
128 | GGAGATTA | -0.0629
129 | GAAAACAA | 0.0685
130 | TGGGCCAA | -0.0473
131 | AAGCGATG | -0.0678
132 | ACGGACGG | -0.0788
133 | CGATAGGA | -0.124
134 | CACAGCTA | 0.00972
135 | ATGTGGGC | -0.00867
136 | CATTACGC | 0.0335
137 | CCCCAGCC | -0.104
138 | CGTCGCCC | -0.279
139 | AATCCCAC | -0.101
140 | GCTCCAGA | -0.0292
141 | CCTTCTTC | -0.242
142 | AATCCTCC | 0.0477
143 | ACGGCTGA | 0.0503
144 | AACTGTCG | 0.0559
145 | AGCGACAC | 0.0263
146 | AGCCGACA | -0.0901
147 | CTATCTCC | -0.217
148 | AATCTTCG | 0.118
149 | CGGTGATC | -0.231
150 | TGAACGCA | 0.202

In another format: entries from further up.
CCGTCATA
  PBM E-score: -0.0187
ATACTCAA
  PBM E-score: -0.0344
CATTACGC
  PBM E-score: 0.0335

Going on with the list:

Row | Sequence | PBM E-score
151 | CTTCGGAA | 0.145
152 | ATACTTCG | -0.0617
153 | GACCCCCC | -0.458
154 | AGCATTTC | 0.0511
155 | CACTTAAA | 0.0186
156 | AGGCTCAC | -0.085
157 | AGAATAAT | 0.147
158 | TCTTGGAA | 0.0914
159 | AGGCCACC | -0.197
160 | TAAAAGCA | 0.0457
161 | GGACGAAA | 0.0387
162 | CCAACAAC | 0.0698
163 | AAGCGCCG | 0.0659
164 | GATCTTGA | 0.0458
165 | ATGTTTGG | -0.0712
166 | CCTCTACA | -0.131
167 | AAAGTTGA | -0.0124
168 | GCCATGCC | -0.0719
169 | GCATTGGA | -0.0362
170 | GAAGGGTA | -0.0339
171 | ATACTAAT | 0.105
172 | CAGATATG | 0.0771
173 | ATTCTAGC | -0.156
174 | TCAAAGAA | -0.104
175 | CATAATAC | 0.0107

Row | Sequence | PBM E-score
176 | GTGGGTTA | -0.0649
177 | GCTCCTGA | -0.119
178 | CACAAGCG | -0.145
179 | AATGTTAG | 0.0286
180 | ACTGGAAT | 0.0248
181 | CGCAGGGC | -0.00694
182 | GAGAGAAC | -0.064
183 | CGGTTGCC | 0.222
184 | CGGAATAG | 0.0775
185 | TATCTTCA | -0.0564
186 | TAACAATA | 0.165
187 | CAGTGTAC | 0.0128
188 | CGCGTGGC | -0.0806
189 | AATTCAGG | 0.176
190 | CTCACAAA | 0.0843
191 | CACAACTA | 0.213
192 | ATGGTTGA | -0.0849
193 | ACGGCCAC | 0.0951
194 | GTGTGAGA | 0.0149
195 | AATCTACG | -0.186
196 | AATCAATG | 0.217
197 | GGTGCTAA | 0.00614
198 | CCTTTATC | -0.0775
199 | CTCCCAGC | -0.124
200 | ATTATTCA | 0.26

Row | Sequence | PBM E-score
201 | TAAGGATA | 0.0582
202 | CGACCCCG | -0.191
203 | CGCTTAAA | 0.139
204 | CATTTTGA | -0.12
205 | GAGGCTCA | -0.174
206 | GCATACAC | -0.0314
207 | AAATATAG | 0.209
208 | AGACTACG | -0.0981
209 | CGCACCCC | -0.247
210 | TAACAGAA | 0.177
211 | TTAGCCAA | -0.0111
212 | ACTGCGGC | 0.0901
213 | CGTAACGA | -0.077
214 | CCGGGTAG | 0.00529
215 | CGTTCGCA | -0.116
216 | ATCTCTCA | 0.188
217 | GCTGGGAA | -0.0764
218 | TAAGTGTA | 0.0637
219 | AGATCGCC | -0.0366
